These are yes or no findings as the source states them, for the method shown. In cells and extracts the contact can be indirect. For part of these data: A result given as binding can be weak or reduced; the word gives no strength. Sequences can lack the tags named with a protein.
B1: HA-SNIP1 (protein, UniProt Q8BIZ6 1-383)
chain: MKAGKSERERSGRRRHRSGDALTTVVVKQERLSPEPVAHRRPDAPAASLSPPAAEPGHSGHRGSRARSPAKKKSKSSGRRSKSPRTKRSQSPHYPMVKVKQEREDHPRRGREDRQHREPSEQEHRRARNSERDRHRGHSRQGRSSDERPVSGQDRDRDSQNLQAQEEERDFHNARRREHRQQNESAGSEAQEVIPRPAGNRSKEVPVKEKPSFELSGALLEDTNTFRGVVIKYSEPPEARIPKKRWRLYPFKNDEVLPVMYIHRQSAYLLGRHRRIADIPIDHPSCSKQHAVFQYRLVEYTRADGTVGRRVKPYIIDLGSGNGTFLNNKRIEPQRYYELKEKDVLKFGFSSREYVLLHESSDTSELDRKEDEDDEEEEMVSDS
B2: RNPS1-Myc (protein, UniProt Q99M28 1-305)
chain: MDLSGVKKKSLLGVKENNKKSSTRAPSPTKRKDRSDEKSKDRSKDKGATKESSEKDRGRDKTRKRRSASSGSSSTRSRSSSTSSSGSSTSTGSSSGSSSSSASSRSGSSSTSRSSSSSSSSGSPSPSRRRHDNRRRSRSKSKPPKRDEKERKRRSPSPKPTKVHIGRLTRNVTKDHIMEIFSTYGKIKMIDMPVERMHPHLSKGYAYVEFENPDEAEKALKHMDGGQIDGQEITATAVLAPWPRPPPRRFSPPRRMLPPPPMWRRSPPRMRRRSRSPRRRSPVRRRSRSPGRRRHRSRSSSNSSR

Tests used:
[1] = target: Flag-tagged RNPS1 ΔS (serine-rich domain deletion); experiment: co-IP; HEK293 cells (legend; the text says N2a cells) expressing HA-SNIP1 and/or Flag-tagged full-length or domain-truncated RNPS1
[2] = target: Flag-tagged RNPS1 ΔRRM (RNA recognition motif deletion); experiment: as above
[3] = target: Flag-tagged FHA domain-truncated SNIP1 (ΔFHA); experiment: co-IP; N2a cells expressing Flag-tagged full-length or ΔFHA SNIP1 together with RNPS1-Myc

Row | Binder | binding [1] | binding [2] | binding [3]
1 | B1 | no binding | binds | –
2 | B2 | – | – | no binding

Source: publication PMC10166177
